# Data source: PubChem BioAssay AID743454 (Peter MacCallum Cancer Centre, 2014)
# Screen: 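Knock-downs lowering viability or raising caspase 3/7 activity in vorinostat-treated resistant cells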 (primary screen)
# System: human HCT116-VR colon cancer cells, selected for vorinostat resistance
# Reagent: siRNA pool against human genes, 40 nM siRNA pool
# Time to read-out: vorinostat for 24 h, read-out about 72 h after transfection
# Conditions: vorinostat at 2.5 µM final
# Detection: 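Two measures, CellTiter-Fluor viability and luminescent caspase 3/7 activity, each as fold change against same-plate mock wells, mean of duplicates, then screen-wide robust z-score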
# Scale: viability robust z-score: higher = more viable cells than screen typical; caspase robust z-score: higher = more caspase 3/7 activity than screen typical
# Active means: 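a knock-down is a hit when classed RV1 or RV2 for lowered viability, or CA1 or CA2 for caspase activation; those lethal without drug were dropped; hits were retested singly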
# The whole screen tested about 18,000 reagents; this is a random part of them. 450 of all reagents (2.5%) were called active. 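Single biological run; no consistent viability z cut-off exists, so the class columns, not z-scores, define the calls.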 Unmarked entries are inactive.
target gene,viability hit class,caspase hit class,viability robust z-score,caspase robust z-score
DRD2 (dopamine receptor D2),no change,no change,-2.24,-0.75
"ALPP (alkaline phosphatase, placental)",no change,no change,0.09,1.5
TRIM39 (tripartite motif containing 39),no change,no change,-0.02,0.4
MRPL15 (mitochondrial ribosomal protein L15),no change,no change,0.32,-0.07
JAKMIP2 (janus kinase and microtubule interacting protein 2),no change,no change,0.71,0.07
PHPT1 (phosphohistidine phosphatase 1),no change,no change,0.81,0.9
OR5T1 (olfactory receptor family 5 subfamily T member 1),no change,no change,0.06,-1.02
"SEC23A (SEC23 homolog A, COPII component)",no change,no change,0.08,0.24
"FEV (FEV transcription factor, ETS family member)",no change,no change,-0.22,2.08
TMEM232 (transmembrane protein 232),no change,no change,0.67,-0.48
SLC10A1,no change,no change,-2.08,-1.05
LSG1 (large 60S subunit nuclear export GTPase 1),no change,no change,0.74,-0.55
FANCD2OS (FANCD2 opposite strand),no change,no change,2.02,0.61
GBA3 (glucosylceramidase beta 3 (gene/pseudogene)),no change,no change,0.52,-0.88
ADM2 (adrenomedullin 2),no change,no change,-0.68,3.21
SPMAP1 (sperm microtubule associated protein 1),no change,no change,0.21,1.77
FUS (FUS DNA/RNA binding protein),no change,no change,-0.05,-0.36
ARMC9 (armadillo repeat containing 9),no change,no change,-0.55,-0.66
CMSS1 (cms1 ribosomal small subunit homolog),no change,no change,-0.48,0.03
RGS7 (regulator of G protein signaling 7),no change,no change,1.27,-0.43
SLAMF7 (SLAM family member 7),no change,no change,0.49,-0.52
PRR14 (proline rich 14),no change,no change,-0.35,-0.48
FAM156A (family with sequence similarity 156 member A),no change,no change,-1.47,-0.36
ACTBL2 (actin beta like 2),no change,no change,0.72,-0.35
CYP3A4 (cytochrome P450 family 3 subfamily A member 4),no change,no change,0.48,1.38
PRC1 (protein regulator of cytokinesis 1),no change,no change,-1.93,4.92
CCR4 (C-C motif chemokine receptor 4),no change,no change,-0.66,-1.09
TMC7 (transmembrane channel like 7),no change,no change,-0.06,1.36
MON2 (MON2 regulator of endosome-to-Golgi trafficking),no change,no change,0.77,0.66
TUBA8 (tubulin alpha 8),no change,no change,-0.32,-0.84
KHDRBS1,no change,no change,-1.94,1.87
TRAPPC8 (trafficking protein particle complex subunit 8),no change,no change,0.22,-0.6
TSC22D2 (TSC22 domain family member 2),no change,no change,0.9,-0.41
DDX3X (DEAD-box helicase 3 X-linked),no change,no change,-1.06,-0.73
GUK1 (guanylate kinase 1),no change,no change,-0.38,-0.98
IQCE (IQ motif containing E),no change,no change,0.78,1.46
FANCD2 (FA complementation group D2),no change,no change,-0.72,-0.48
"SEC24D (SEC24 homolog D, COPII component)",no change,no change,1.02,-0.87
ZNF790 (zinc finger protein 790),no change,no change,-1.12,1.66
ZNF419 (zinc finger protein 419),no change,no change,0.06,-0.89
ALPK3 (alpha kinase 3),no change,no change,0.49,-0.24
CHODL (chondrolectin),no change,no change,-0.96,1.1
C1orf56 (chromosome 1 open reading frame 56),no change,no change,0.41,0
KLK1 (kallikrein 1),no change,no change,-0.16,1.25
DMBX1 (diencephalon/mesencephalon homeobox 1),no change,no change,0.58,-0.54
SH3PXD2A (SH3 and PX domains 2A),no change,no change,-0.46,0.59
ATF1 (activating transcription factor 1),no change,no change,0.7,0.33
C9orf163 (chromosome 9 putative open reading frame 163),no change,no change,0.76,0.48
ITLN1 (intelectin 1),no change,no change,0.95,0.8
N4BP3 (NEDD4 binding protein 3),no change,no change,-0.16,-0.48
THAP7 (THAP domain containing 7),no change,no change,-0.26,-0.52
PPP2R2A (protein phosphatase 2 regulatory subunit Balpha),no change (active),CA1 (caspase activation),-1.62,6.19
JOSD1 (Josephin domain containing 1),no change,no change,1.42,-0.06
TCEANC2,no change,no change,-1.86,3.15
ADK (adenosine kinase),no change,no change,-0.08,1.34
PDGFD (platelet derived growth factor D),no change,no change,1.5,0.44
TFG (trafficking from ER to golgi regulator),no change,no change,-1.08,4.33

Not a retest: entries from further up.
target gene,viability hit class,caspase hit class,viability robust z-score,caspase robust z-score
PRC1 (protein regulator of cytokinesis 1),no change,no change,-1.93,4.92
CCR4 (C-C motif chemokine receptor 4),no change,no change,-0.66,-1.09
TMC7 (transmembrane channel like 7),no change,no change,-0.06,1.36
MON2 (MON2 regulator of endosome-to-Golgi trafficking),no change,no change,0.77,0.66
TUBA8 (tubulin alpha 8),no change,no change,-0.32,-0.84
KHDRBS1,no change,no change,-1.94,1.87
